No constants are given. Whether binding was seen depends on the method and setting. Some binding calls cover weakened binding; strength is not graded here. For some assays here: Where a sequence is shown, tags or fusion partners need not be part of it.
Columns and labels:
[1] = biological target: T1, mOX40-His (mouse) (UniProt P47741); test: sandwich ELISA: plate-bound mPD-L1, mPD1-Fc-OX40L at 2000 to 0 ng/mL, detection with mOX40-His and rabbit anti-His-HRP
T1 sequence (looked up): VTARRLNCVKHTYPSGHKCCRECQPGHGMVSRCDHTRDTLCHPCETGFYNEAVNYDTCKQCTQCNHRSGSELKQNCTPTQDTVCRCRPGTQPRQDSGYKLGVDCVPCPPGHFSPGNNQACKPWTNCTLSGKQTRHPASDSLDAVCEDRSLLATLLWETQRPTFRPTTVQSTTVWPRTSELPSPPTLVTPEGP

Protein sequences, listed by entry. Tags and fused reporters are not part of them. Lines headed by an entry give the natural chain unless they say otherwise; changes in a name come on top.
UniProt Q02242: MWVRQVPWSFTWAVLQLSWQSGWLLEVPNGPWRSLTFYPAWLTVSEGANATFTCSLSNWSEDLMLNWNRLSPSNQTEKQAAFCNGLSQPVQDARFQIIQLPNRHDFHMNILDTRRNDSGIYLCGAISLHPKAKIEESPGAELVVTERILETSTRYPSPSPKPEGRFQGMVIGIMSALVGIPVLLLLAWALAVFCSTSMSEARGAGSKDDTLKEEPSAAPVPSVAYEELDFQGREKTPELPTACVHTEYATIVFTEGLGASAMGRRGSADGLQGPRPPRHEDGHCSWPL

[2] = biological target: T2, recombinant mOX40 fused to human Fc (mouse) (UniProt P47741); test: ELISA: plate-bound mOX40-hFc, two-fold dilutions of CHO-K1 culture medium, detection with rabbit anti-mPD-1 and anti-rabbit IgG-HRP
T2 sequence (looked up): T1 sequence (looked up)

[3] = biological target: T3, mouse OX40 on cells (activated CD4+ splenocytes) (mouse) (UniProt P47741); test: flow cytometry, activated primary mouse splenocytes, Fc-PE detection; 500 ng/mL according to paragraph 210
T3 sequence (looked up): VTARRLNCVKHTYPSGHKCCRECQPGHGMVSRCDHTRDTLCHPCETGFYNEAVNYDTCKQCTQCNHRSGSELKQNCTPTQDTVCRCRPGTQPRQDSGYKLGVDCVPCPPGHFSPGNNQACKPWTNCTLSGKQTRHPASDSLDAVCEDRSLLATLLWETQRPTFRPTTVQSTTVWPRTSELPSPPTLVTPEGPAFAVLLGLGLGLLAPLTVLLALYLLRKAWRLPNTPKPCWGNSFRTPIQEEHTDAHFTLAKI

[4] = biological target: T1, mOX40-His (mouse); test: sandwich ELISA, capture mPD-L1-Fc, detection mOX40-His and His-HRP
[5] = biological target: T1, mOX40-His (mouse); test: functional ELISA, serial dilution of purified protein
[6] = biological target: T2, recombinant mOX40 fused to human Fc (mouse); test: ELISA, capture on plate-bound mOX40-hFc, anti-mPD-1 detection
[7] = biological target: T3, mouse OX40 on cells (activated CD4+ splenocytes) (mouse); test: flow cytometry on activated mouse splenocytes
[8] = biological target: T3, mouse OX40 on cells (activated CD4+ splenocytes) (mouse); test: flow cytometry (Fc-PE), activated splenocytes, 500 ng/mL

Measured: binding

mouse PD-1-Fc-OX40L (from UniProt Q02242 25-169; P01868 98-324; P43488 51-198) (Fc fusion)
binds: [1] | [2] | [3] | [4] | [5] | [6] | [7] | [8]

Source: patent publication US20180326005A1 (HEAT BIOLOGICS, published 2018)
